Compound in the assay: CN[C@@H]1C[C@H]2O[C@@](C)([C@@H]1OC)n1c3ccccc3c3c4c(c5c6ccccc6n2c5c31)C(=O)NC4 [staurosporine]
Kind of assay: log2 fold change of tryptic peptide abundance, ligand vs vehicle (limited proteolysis) (log2 ratio); higher = more trypsin-susceptible (destabilized). The note with it: ligand concentration: 20 uM; sample: mouse liver crude lysate; replicate design: treated separately.

The chains behind the UniProt entries cited, without tags or fusion partners. Where a name states a change or a piece, a line headed by the entry shows the natural chain unless it says otherwise.
UniProt O54941, whole entry: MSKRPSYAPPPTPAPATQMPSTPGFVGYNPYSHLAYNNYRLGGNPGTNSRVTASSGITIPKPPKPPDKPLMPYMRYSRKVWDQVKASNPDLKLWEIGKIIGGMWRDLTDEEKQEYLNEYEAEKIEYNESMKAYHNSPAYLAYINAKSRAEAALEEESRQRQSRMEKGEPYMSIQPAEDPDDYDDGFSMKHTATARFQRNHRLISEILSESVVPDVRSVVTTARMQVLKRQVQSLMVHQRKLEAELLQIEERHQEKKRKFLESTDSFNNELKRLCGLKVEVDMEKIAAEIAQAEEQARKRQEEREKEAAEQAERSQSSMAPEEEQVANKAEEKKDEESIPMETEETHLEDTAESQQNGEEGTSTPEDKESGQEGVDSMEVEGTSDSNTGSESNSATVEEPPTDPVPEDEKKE
UniProt O55222: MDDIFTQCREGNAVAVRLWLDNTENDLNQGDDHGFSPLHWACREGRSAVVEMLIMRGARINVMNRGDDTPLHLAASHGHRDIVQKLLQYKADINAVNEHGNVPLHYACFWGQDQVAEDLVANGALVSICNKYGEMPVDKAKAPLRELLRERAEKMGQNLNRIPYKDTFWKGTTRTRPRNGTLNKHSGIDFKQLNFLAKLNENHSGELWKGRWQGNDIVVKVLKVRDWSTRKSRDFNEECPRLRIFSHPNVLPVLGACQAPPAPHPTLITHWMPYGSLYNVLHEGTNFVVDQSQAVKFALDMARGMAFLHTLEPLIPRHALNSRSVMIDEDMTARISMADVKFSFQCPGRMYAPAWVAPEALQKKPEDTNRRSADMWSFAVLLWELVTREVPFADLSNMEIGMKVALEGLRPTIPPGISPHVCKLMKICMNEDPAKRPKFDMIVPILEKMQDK
UniProt O88271, whole entry: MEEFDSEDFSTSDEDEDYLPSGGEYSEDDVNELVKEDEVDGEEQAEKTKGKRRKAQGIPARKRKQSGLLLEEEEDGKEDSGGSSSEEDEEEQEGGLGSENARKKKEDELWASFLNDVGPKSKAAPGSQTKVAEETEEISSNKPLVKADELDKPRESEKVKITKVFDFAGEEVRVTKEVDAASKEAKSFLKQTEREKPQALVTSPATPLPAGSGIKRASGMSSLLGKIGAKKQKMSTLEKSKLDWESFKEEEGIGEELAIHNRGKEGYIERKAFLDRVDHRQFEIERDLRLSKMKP
UniProt O88447: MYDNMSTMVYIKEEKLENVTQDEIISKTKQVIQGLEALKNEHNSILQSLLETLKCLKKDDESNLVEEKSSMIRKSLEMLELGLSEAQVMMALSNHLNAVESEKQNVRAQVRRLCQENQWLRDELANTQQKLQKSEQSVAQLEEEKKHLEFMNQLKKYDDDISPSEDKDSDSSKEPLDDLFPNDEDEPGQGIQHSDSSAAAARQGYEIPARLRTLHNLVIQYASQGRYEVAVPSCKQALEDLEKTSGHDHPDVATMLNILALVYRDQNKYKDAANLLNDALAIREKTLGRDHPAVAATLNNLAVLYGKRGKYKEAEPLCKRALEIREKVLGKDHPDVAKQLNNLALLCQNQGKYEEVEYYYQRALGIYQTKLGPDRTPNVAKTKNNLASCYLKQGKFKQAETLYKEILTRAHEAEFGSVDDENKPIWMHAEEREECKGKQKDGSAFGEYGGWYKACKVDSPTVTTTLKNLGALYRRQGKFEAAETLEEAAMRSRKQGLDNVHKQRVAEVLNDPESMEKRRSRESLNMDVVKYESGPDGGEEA
UniProt O88874: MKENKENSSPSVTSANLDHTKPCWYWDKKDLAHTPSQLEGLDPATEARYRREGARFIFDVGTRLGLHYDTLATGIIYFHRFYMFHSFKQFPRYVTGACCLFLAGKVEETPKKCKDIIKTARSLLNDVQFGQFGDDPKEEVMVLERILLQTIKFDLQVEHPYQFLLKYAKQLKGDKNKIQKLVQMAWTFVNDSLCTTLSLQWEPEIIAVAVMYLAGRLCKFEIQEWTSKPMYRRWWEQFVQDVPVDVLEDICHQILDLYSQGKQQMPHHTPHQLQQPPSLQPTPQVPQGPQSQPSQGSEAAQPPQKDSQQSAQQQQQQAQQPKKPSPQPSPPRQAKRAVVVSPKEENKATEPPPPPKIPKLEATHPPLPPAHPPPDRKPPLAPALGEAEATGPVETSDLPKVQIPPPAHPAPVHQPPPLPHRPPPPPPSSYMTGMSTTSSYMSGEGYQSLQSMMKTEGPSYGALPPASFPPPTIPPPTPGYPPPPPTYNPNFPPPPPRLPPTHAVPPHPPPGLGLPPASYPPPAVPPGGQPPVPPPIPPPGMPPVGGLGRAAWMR
UniProt O35973, whole entry: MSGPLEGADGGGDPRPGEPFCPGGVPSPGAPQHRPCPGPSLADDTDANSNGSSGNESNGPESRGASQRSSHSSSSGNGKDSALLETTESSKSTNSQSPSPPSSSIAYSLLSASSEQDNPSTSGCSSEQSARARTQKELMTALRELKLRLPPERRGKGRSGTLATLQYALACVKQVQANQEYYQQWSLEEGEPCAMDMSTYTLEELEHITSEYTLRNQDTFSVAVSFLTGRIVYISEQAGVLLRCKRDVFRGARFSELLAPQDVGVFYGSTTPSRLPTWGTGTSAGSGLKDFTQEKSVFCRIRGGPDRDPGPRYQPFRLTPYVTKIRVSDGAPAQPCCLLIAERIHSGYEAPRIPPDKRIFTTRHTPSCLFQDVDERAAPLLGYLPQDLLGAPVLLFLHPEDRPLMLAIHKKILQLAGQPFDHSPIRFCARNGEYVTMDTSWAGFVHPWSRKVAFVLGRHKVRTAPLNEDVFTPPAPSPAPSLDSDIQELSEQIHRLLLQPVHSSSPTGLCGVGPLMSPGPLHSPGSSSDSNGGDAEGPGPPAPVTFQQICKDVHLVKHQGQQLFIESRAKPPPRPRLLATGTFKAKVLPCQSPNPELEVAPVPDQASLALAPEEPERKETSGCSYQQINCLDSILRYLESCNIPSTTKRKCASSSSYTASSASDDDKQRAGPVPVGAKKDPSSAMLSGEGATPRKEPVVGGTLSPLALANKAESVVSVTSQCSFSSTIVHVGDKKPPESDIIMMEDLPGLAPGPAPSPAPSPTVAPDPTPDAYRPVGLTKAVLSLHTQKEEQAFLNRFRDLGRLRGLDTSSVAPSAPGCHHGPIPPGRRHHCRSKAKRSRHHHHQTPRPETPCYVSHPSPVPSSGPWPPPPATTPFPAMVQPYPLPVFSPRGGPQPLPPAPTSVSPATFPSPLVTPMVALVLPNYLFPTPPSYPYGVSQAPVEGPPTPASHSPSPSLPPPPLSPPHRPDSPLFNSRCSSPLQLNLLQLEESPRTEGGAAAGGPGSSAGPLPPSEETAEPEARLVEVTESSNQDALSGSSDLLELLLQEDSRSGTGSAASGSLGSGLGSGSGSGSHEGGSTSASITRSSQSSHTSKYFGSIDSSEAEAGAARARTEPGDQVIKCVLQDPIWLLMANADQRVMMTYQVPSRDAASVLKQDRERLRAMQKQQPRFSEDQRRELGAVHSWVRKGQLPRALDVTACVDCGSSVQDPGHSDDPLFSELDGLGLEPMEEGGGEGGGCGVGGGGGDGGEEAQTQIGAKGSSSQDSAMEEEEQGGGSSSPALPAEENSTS
UniProt O35740: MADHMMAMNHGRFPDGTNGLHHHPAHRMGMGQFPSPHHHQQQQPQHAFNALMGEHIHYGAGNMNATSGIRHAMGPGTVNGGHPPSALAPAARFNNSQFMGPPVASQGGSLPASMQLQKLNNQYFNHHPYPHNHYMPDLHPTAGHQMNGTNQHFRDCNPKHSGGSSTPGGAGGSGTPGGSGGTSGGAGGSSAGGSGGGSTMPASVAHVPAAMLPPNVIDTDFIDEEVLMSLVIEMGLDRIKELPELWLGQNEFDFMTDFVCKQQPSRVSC
UniProt O88466: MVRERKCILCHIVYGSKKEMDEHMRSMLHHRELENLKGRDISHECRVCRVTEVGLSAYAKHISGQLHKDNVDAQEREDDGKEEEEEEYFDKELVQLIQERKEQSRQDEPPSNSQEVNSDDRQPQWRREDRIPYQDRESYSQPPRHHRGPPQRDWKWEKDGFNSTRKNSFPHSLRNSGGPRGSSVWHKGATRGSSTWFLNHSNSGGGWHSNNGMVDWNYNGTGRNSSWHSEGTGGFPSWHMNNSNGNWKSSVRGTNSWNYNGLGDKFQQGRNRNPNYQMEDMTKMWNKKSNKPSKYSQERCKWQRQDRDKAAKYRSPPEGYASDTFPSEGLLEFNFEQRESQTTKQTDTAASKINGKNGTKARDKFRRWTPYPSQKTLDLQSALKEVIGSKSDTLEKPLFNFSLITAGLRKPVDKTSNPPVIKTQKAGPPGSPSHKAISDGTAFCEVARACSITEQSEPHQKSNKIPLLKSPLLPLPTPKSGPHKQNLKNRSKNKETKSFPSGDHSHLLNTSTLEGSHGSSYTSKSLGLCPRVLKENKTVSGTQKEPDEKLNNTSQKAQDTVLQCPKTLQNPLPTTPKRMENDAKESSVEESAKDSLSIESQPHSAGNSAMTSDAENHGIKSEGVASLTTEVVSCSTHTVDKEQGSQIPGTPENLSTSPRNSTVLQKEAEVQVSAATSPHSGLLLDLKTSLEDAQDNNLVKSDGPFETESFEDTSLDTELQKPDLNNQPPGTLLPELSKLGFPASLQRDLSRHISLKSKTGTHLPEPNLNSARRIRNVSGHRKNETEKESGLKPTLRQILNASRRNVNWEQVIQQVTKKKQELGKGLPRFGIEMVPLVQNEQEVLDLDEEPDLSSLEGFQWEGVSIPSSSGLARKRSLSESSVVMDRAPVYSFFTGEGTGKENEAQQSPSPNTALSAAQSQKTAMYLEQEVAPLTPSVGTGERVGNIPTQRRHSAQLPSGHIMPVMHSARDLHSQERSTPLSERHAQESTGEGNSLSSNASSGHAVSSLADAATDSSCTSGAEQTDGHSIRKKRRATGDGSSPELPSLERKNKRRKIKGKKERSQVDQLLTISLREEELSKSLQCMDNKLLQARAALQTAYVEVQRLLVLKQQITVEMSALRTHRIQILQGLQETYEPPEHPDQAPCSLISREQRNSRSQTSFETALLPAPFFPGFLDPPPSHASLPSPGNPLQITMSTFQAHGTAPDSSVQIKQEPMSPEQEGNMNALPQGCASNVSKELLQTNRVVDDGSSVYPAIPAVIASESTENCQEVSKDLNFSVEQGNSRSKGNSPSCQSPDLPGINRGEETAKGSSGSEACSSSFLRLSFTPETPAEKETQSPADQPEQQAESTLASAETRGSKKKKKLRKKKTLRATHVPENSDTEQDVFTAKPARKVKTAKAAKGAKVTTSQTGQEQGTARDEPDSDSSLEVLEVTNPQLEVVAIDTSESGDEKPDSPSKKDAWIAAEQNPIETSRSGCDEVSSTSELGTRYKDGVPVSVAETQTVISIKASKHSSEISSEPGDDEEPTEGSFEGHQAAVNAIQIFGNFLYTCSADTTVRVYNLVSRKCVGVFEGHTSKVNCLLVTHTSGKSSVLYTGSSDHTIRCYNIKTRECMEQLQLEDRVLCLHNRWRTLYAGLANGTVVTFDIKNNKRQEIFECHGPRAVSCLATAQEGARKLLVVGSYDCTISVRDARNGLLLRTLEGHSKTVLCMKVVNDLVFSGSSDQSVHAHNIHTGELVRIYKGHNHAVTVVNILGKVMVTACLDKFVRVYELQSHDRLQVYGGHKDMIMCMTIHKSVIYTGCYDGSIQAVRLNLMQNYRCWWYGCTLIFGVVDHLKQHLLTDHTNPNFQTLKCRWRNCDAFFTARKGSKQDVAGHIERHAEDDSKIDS
UniProt O54918, whole entry: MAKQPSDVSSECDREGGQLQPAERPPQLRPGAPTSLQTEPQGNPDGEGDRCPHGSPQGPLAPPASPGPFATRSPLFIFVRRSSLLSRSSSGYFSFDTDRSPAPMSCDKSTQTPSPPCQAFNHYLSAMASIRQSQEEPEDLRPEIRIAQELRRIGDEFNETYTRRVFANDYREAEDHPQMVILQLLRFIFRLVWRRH
UniProt O54833, whole entry: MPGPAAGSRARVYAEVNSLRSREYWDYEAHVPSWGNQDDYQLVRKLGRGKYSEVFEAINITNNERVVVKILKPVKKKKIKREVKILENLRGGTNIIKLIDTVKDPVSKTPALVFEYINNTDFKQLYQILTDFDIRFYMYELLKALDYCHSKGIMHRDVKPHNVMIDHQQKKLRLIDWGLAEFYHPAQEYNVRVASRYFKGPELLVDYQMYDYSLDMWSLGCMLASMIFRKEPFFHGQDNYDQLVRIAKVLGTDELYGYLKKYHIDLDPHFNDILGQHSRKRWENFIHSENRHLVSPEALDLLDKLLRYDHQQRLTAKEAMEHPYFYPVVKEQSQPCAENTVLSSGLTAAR
UniProt O35609: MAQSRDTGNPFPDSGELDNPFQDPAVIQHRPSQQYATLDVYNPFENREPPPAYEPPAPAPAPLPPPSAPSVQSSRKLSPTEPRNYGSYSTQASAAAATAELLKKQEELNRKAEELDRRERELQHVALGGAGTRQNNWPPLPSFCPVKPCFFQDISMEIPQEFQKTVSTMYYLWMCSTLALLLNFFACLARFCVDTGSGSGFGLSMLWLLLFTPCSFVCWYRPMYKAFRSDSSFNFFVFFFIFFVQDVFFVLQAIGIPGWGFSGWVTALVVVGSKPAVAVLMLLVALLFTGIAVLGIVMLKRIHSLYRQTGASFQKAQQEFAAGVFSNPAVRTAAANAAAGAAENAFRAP

In the supplement of paper PMC12819154, “High-throughput peptide-centric local stability assay extends protein–ligand identification to membrane proteins, tissues and bacteria” (Nature Structural & Molecular Biology, 2025) one finds log2 fold change data, which are given here for 39 targets.

The other results are listed elsewhere or left out. Small differences around the control level are noise.

With “UniProt O88851 (peptide sequence: GHFQNTEFHELISVVK, peptide start residue: 164)”, the log2 fold change was -0.303.

Consider “UniProt O35516 (peptide sequence: EPVGQDAVGLK, peptide start residue: 1730)”, for which the log2 fold change was -0.292.

With “UniProt O70472 (peptide sequence: TSPLVSETAAATQGHTASR, peptide start residue: 1256)”, the log2 fold change came out at 0.32.

Consider “UniProt O54692 (peptide sequence: NIFHLFHDVVPTYHK, peptide start residue: 514)”, for which the log2 fold change was 0.25.

“UniProt O54941 (peptide sequence: IAAEIAQAEEQARK, peptide start residue: 285)”: the log2 fold change is -0.496.

As for “UniProt O88878 (peptide sequence: TNGMCSVCYKEHLQR, peptide start residue: 26)”, the log2 fold change came out at 0.118.

Consider “UniProt O35904 (peptide sequence: DEQSNPAPQVQKPR, peptide start residue: 287)”, for which the log2 fold change is 0.00528.

For “UniProt O55222 (peptide sequence: GDDTPLHLAASHGHR, peptide start residue: 66)”, the log2 fold change was -0.316.

Turning to “UniProt O35623 (peptide sequence: SLSIEIGHEVKNQNK, peptide start residue: 48)”, the log2 fold change was -0.17.

“UniProt O35678 (peptide sequence: YWKPSGTPK, peptide start residue: 34)”: the log2 fold change was 0.136.

For “UniProt O35864 (peptide sequence: GSFMLGLETHDRK, peptide start residue: 283)”, the log2 fold change is -0.142.

With “UniProt O35643 (peptide sequence: NINLIVQK, peptide start residue: 305)”, the log2 fold change was -0.452.

Turning to “UniProt O88811 (peptide sequence: HGELITVLDDSDANWWQGENHR, peptide start residue: 225)”, the log2 fold change was -0.415.

For the target “UniProt O70456 (peptide sequence: SAVEKGEELSCEER, peptide start residue: 28)”, the log2 fold change was -0.328.

As to “UniProt O88738 (peptide sequence: LPGYAEVLLK, peptide start residue: 4191)”, the log2 fold change was found to be 0.19.

“UniProt O88271 (peptide sequence: EKPQALVTSPATPLPAGSGIKR, peptide start residue: 195)”: the log2 fold change was -0.517.

For the target “UniProt O55187 (peptide sequence: SGEAAEGEAR, peptide start residue: 281)”, the log2 fold change is 0.481.

For “UniProt O70583 (peptide sequence: VSHDNLTVERDESSSK, peptide start residue: 512)”, the log2 fold change turned out to be 0.374.

On to “UniProt O88447 (peptide sequence: HLEFMNQLK, peptide start residue: 147)”, for which the log2 fold change amounted to 0.386.

As for “UniProt O55070 (peptide sequence: RSTTYNYVISSR, peptide start residue: 86)”, the log2 fold change was -0.855.

Regarding “UniProt O35618 (peptide sequence: KDWYSDCSK, peptide start residue: 327)”, the log2 fold change stood at 0.486.

Turning to “UniProt O70433 (peptide sequence: DLSYKDR, peptide start residue: 53)”, the log2 fold change is -0.263.

Consider “UniProt O54724 (peptide sequence: LVPVERR, peptide start residue: 283)”, for which the log2 fold change was -0.17.

For “UniProt O35730 (peptide sequence: SGNKECPTCR, peptide start residue: 82)”, the log2 fold change is -1.

Take “UniProt O88329 (peptide sequence: YLGLLENVR, peptide start residue: 618)”: the log2 fold change is -0.149.

Take “UniProt O88874 (peptide sequence: LEATHPPLPPAHPPPDR, peptide start residue: 360)”: the log2 fold change stood at 0.279.

Regarding “UniProt O35973 (peptide sequence: AVLSLHTQKEEQAFLNR, peptide start residue: 781)”, the log2 fold change is 0.832.

For “UniProt O70152 (peptide sequence: SLAASPRPPQGR, peptide start residue: 9)”, the log2 fold change was -0.163.

As for “UniProt O35740 (peptide sequence: ADHMMAMNHGR, peptide start residue: 2)”, the log2 fold change is -0.149.

Consider “UniProt O88466 (peptide sequence: HSAQLPSGHIMPVMHSAR, peptide start residue: 952)”, for which the log2 fold change was -0.612.

“UniProt O54918 (peptide sequence: SPLFIFVR, peptide start residue: 73)”: the log2 fold change was -0.0925.

As for “UniProt O54833 (peptide sequence: VYAEVNSLR, peptide start residue: 12)”, the log2 fold change was 0.0133.

On to “UniProt O35601 (peptide sequence: SKFMPAAQDTDSKPR, peptide start residue: 176)”, for which the log2 fold change turned out to be 0.261.

For “UniProt O35607 (peptide sequence: NISSEHSMSSTPLTIGEK, peptide start residue: 565)”, the log2 fold change is -0.234.

In the case of “UniProt O88379 (peptide sequence: QSTESSPVPLNR, peptide start residue: 1411)”, the log2 fold change was found to be 0.231.

Take “UniProt O35609 (peptide sequence: ERELQHVALGGAGTR, peptide start residue: 119)”: the log2 fold change came out at 0.208.

As for “UniProt O54734 (peptide sequence: VGPVSHHR, peptide start residue: 293)”, the log2 fold change is -0.4.

For “UniProt O55134 (peptide sequence: AHENETDEVRPSHK, peptide start residue: 783)”, the log2 fold change was -0.328.

Take “UniProt O70251 (peptide sequence: LVPVGYGIKK, peptide start residue: 177)”: the log2 fold change was 0.203.
